# The supplement of paper PMC8728848
# Some of the results follow.
# Key:
# Experiment in all cases: glycan array binding signal (z-score within array); higher = stronger binding
# Conditions in all cases: glycan notation: IUPAC condensed, linker removed
# [1] = molecular target: Neu5Ac(a2-6)GlcNAc(b1-4)GlcNAc(b1-4)GlcNAc
# Method in brief: (§1)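 Glycan array binding is given as a within-array Z-score, which can be read as non-binding when negative. The arrays, 3228 of them, came from the Consortium for Functional Glycomics database and were retained only where the protein sequence was available. Z-scores were averaged across arrays of the same protein sequence at different concentrations or buffers and across linkers.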
# Neu5Ac(a2-8)Neu5Ac = molecular target: Neu5Ac(a2-8)Neu5Ac
# Method in brief: as §1
# [2] = molecular target: Neu5Ac(a2-8)Neu5Ac(a2-3)Gal(b1-3)GalNAc(b1-4)[Neu5Ac(a2-3)]Gal(b1-4)Glc
# Method in brief: as §1
# [3] = molecular target: Neu5Ac(a2-8)Neu5Ac(a2-3)Gal(b1-3)GalNAc(b1-4)[Neu5Ac(a2-8)Neu5Ac(a2-3)]Gal(b1-4)Glc
# Method in brief: as §1
# [4] = molecular target: Neu5Ac(a2-8)Neu5Ac(a2-3)Gal(b1-4)Glc
# Method in brief: as §1
# [5] = molecular target: Neu5Ac(a2-8)Neu5Ac(a2-3)Gal(b1-4)GlcNAc
# Method in brief: as §1
# [6] = molecular target: Neu5Ac(a2-8)Neu5Ac(a2-3)[Gal(b1-3)GalNAc(b1-4)]Gal(b1-4)Glc
# Method in brief: as §1
# [7] = molecular target: Neu5Ac(a2-8)Neu5Ac(a2-3)[GalNAc(b1-4)]Gal(b1-4)Glc
# Method in brief: as §1
# [8] = molecular target: Neu5Ac(a2-8)Neu5Ac(a2-8)Neu5Ac
# Method in brief: as §1
# [9] = molecular target: Neu5Ac(a2-8)Neu5Ac(a2-8)Neu5Ac(a2-3)Gal(b1-4)Glc
# Method in brief: as §1
# [10] = molecular target: Neu5Ac(a2-8)Neu5Ac(a2-8)Neu5Ac(a2-3)[Gal(b1-3)GalNAc(b1-4)]Gal(b1-4)Glc
# Method in brief: as §1
# [11] = molecular target: Neu5Ac(a2-8)Neu5Ac(a2-8)Neu5Ac(a2-3)[GalNAc(b1-4)]Gal(b1-4)Glc
# Method in brief: as §1
# [12] = molecular target: Neu5Ac(a2-8)Neu5Ac(a2-8)Neu5Ac(a2-8)Neu5Ac(a2-3)[GalNAc(b1-4)]Gal(b1-4)Glc
# Method in brief: as §1
# [13] = molecular target: Neu5Ac(a2-8)Neu5Gc(a2-3)Gal(b1-4)GlcNAc
# Method in brief: as §1
# [14] = molecular target: Neu5Ac(b2-6)Gal(b1-4)GlcNAc
# Method in brief: as §1
# Neu5Ac(b2-6)GalNAc = molecular target: Neu5Ac(b2-6)GalNAc
# Method in brief: as §1
# [15] = molecular target: Neu5Ac9Ac(a2-3)Gal(b1-3)GlcNAc
# Method in brief: as §1
# [16] = molecular target: Neu5Ac9Ac(a2-3)Gal(b1-4)GlcNAc
# Method in brief: as §1
# [17] = molecular target: Neu5Ac9Ac(a2-6)Gal(b1-4)GlcNAc
# Method in brief: as §1
# [18] = molecular target: Neu5Gc(a2-3)Gal(b1-3)GlcNAc
# Method in brief: as §1
# [19] = molecular target: Neu5Gc(a2-3)Gal(b1-3)[Fuc(a1-4)]GlcNAc
# Method in brief: as §1
# Neu5Gc(a2-3)Gal(b1-4)Glc = molecular target: Neu5Gc(a2-3)Gal(b1-4)Glc
# Method in brief: as §1
# [20] = molecular target: Neu5Gc(a2-3)Gal(b1-4)GlcNAc
# Method in brief: as §1
# [21] = molecular target: Neu5Gc(a2-3)Gal(b1-4)GlcNAc(b1-3)Gal(b1-4)GlcNAc(b1-2)Man(a1-3)[Neu5Gc(a2-3)Gal(b1-4)GlcNAc(b1-3)Gal(b1-4)GlcNAc(b1-2)Man(a1-6)]Man(b1-4)GlcNAc(b1-4)GlcNAc
# Method in brief: as §1
# [22] = molecular target: Neu5Gc(a2-3)Gal(b1-4)[Fuc(a1-3)]GlcNAc
# Method in brief: as §1
# [23] = molecular target: Neu5Gc(a2-6)Gal(b1-4)GlcNAc
# Method in brief: as §1
# Neu5Gc(a2-6)GalNAc = molecular target: Neu5Gc(a2-6)GalNAc
# Method in brief: as §1
# [24] = molecular target: Neu5Gc(a2-8)Neu5Ac(a2-3)Gal(b1-4)GlcNAc
# Method in brief: as §1
# [25] = molecular target: Neu5Gc(a2-8)Neu5Gc(a2-3)Gal(b1-4)GlcNAc
# Method in brief: as §1
# [26] = molecular target: Neu5Gc(a2-8)Neu5Gc(a2-3)Gal(b1-4)GlcNAc(b1-3)Gal(b1-4)GlcNAc
# Method in brief: as §1
binder,measurement,setting,value
PX14343F-bfa-562-20-562 (Bacteroides fragilis) (protein) CDDFLDSFPQDTVTNENFWKSKEDADKVLVDIYASLLPKDAIFFDEAMSDNAYLVWDWWGGAQQVANGSYTTSGEIPTNRWNGSYEVIRKCWFLLEGIEKIEDISEQDKNKIIGETYFMLAYNYYVLTSYFGDVPLVTKTLAIPESKQLVRTPKAEVVDYAINKLKEAAVMLEGLSQEKGRVTADACRFLIARMYLYNGDYSNVLETVKLLEGKYQLYREGDTPYEDLFSGVAENSCEVILSVVCDKRVGEIYTSHGGNGIMLLKGITGEDPYRGVTPSGSLVDAYPMADGRLIHEAGSSYDPKKPYEGRDPRFYQSIVYPTGQIKYLDVETGTVKERLYDPEDPTTVPEHQYNYSQPSATGYMWNKYIDYSVYAMNSVWDCTNDIIVFRYADVLLMKAEALLQTKGESAKEEVCNLIDQLRDRCSCGRVHRENYNSKDELMELLKNERRIELANEGLRYMDLIRWKDAEKNTIVTGVGLTGQMYGAYMRKDGVGKDDKTVDVDNTPRRYIETRYFNASKGYLFPIPQKERDLNPNLTQNPNW,glycan array binding signal (z-score),[1],-0.673
same,glycan array binding signal (z-score),Neu5Ac(a2-8)Neu5Ac,-0.003
same,glycan array binding signal (z-score),[2],0.302
same,glycan array binding signal (z-score),[3],-0.512
same,glycan array binding signal (z-score),[4],-0.774
same,glycan array binding signal (z-score),[5],-0.606
same,glycan array binding signal (z-score),[6],-0.69
same,glycan array binding signal (z-score),[7],1.74
same,glycan array binding signal (z-score),[8],0.358
same,glycan array binding signal (z-score),[9],0.121
same,glycan array binding signal (z-score),[10],-0.257
same,glycan array binding signal (z-score),[11],0.766
same,glycan array binding signal (z-score),[12],0.09
same,glycan array binding signal (z-score),[13],19.1
same,glycan array binding signal (z-score),[14],-0.671
same,glycan array binding signal (z-score),Neu5Ac(b2-6)GalNAc,-0.688
same,glycan array binding signal (z-score),[15],-0.892
same,glycan array binding signal (z-score),[16],-0.067
same,glycan array binding signal (z-score),[17],-0.756
same,glycan array binding signal (z-score),[18],0.39
same,glycan array binding signal (z-score),[19],-0.055
same,glycan array binding signal (z-score),Neu5Gc(a2-3)Gal(b1-4)Glc,0.416
same,glycan array binding signal (z-score),[20],0.613
same,glycan array binding signal (z-score),[21],0.242
same,glycan array binding signal (z-score),[22],-0.332
same,glycan array binding signal (z-score),[23],-0.418
same,glycan array binding signal (z-score),Neu5Gc(a2-6)GalNAc,-0.551
same,glycan array binding signal (z-score),[24],-0.397
same,glycan array binding signal (z-score),[25],0.033
same,glycan array binding signal (z-score),[26],0.2
